Assay: Plasma morphine concentration after single administration (LC-MS/MS) and pharmacokinetic parameters
Conditions: rhesus monkey; for Plasma morphine concentration (in terms of morphine hydrochloride) / concentration at 60 min: Morphine HCl 2 mg; for concentration at 60 min: Plasma morphine concentration (in terms of morphine hydrochloride)

CN1CC[C@]23c4c5ccc(O)c4O[C@H]2[C@@H](O)C=C[C@H]3[C@H]1C5.Cl [Comparative Example 1, morphine hydrochloride]
Plasma morphine concentration (in terms of morphine hydrochloride) (0 min, Animal 1, oral): — (“-” indicates that the concentration was under the detection limit (4.3 ng).) | Plasma morphine concentration (in terms of morphine hydrochloride) (0 min, Animal 2, oral): — (“-” indicates that the concentration was under the detection limit (4.3 ng).) | Plasma morphine concentration (in terms of morphine hydrochloride) (0 min, Animal 3, oral): — (“-” indicates that the concentration was under the detection limit (4.3 ng).) | Plasma morphine concentration (in terms of morphine hydrochloride) (5 min, Animal 1, oral): — (“-” indicates that the concentration was under the detection limit (4.3 ng).) | Plasma morphine concentration (in terms of morphine hydrochloride) (5 min, Animal 2, oral): — (“-” indicates that the concentration was under the detection limit (4.3 ng).) | Plasma morphine concentration (in terms of morphine hydrochloride) (5 min, Animal 3, oral): — (“-” indicates that the concentration was under the detection limit (4.3 ng).) | Plasma morphine concentration (in terms of morphine hydrochloride) (10 min, Animal 1, oral): — (“-” indicates that the concentration was under the detection limit (4.3 ng).) | Plasma morphine concentration (in terms of morphine hydrochloride) (10 min, Animal 2, oral): — (“-” indicates that the concentration was under the detection limit (4.3 ng).) | Plasma morphine concentration (in terms of morphine hydrochloride) (10 min, Animal 3, oral): — (“-” indicates that the concentration was under the detection limit (4.3 ng).) | Plasma morphine concentration (in terms of morphine hydrochloride) (20 min, Animal 1, oral): — (“-” indicates that the concentration was under the detection limit (4.3 ng).) | Plasma morphine concentration (in terms of morphine hydrochloride) (20 min, Animal 2, oral): — (“-” indicates that the concentration was under the detection limit (4.3 ng).) | Plasma morphine concentration (in terms of morphine hydrochloride) (20 min, Animal 3, oral): — (“-” indicates that the concentration was under the detection limit (4.3 ng).) | Plasma morphine concentration (in terms of morphine hydrochloride) (30 min, Animal 1, oral): — (“-” indicates that the concentration was under the detection limit (4.3 ng).) | Plasma morphine concentration (in terms of morphine hydrochloride) (30 min, Animal 2, oral): — (“-” indicates that the concentration was under the detection limit (4.3 ng).) | Plasma morphine concentration (in terms of morphine hydrochloride) (30 min, Animal 3, oral): — (“-” indicates that the concentration was under the detection limit (4.3 ng).) | Plasma morphine concentration (in terms of morphine hydrochloride) (60 min, Animal 2, oral): — (“-” indicates that the concentration was under the detection limit (4.3 ng).) | Plasma morphine concentration (in terms of morphine hydrochloride) (120 min, Animal 1, oral): — (“-” indicates that the concentration was under the detection limit (4.3 ng).) | Plasma morphine concentration (in terms of morphine hydrochloride) (120 min, Animal 2, oral): — (“-” indicates that the concentration was under the detection limit (4.3 ng).) | Plasma morphine concentration (in terms of morphine hydrochloride) (120 min, Animal 3, oral): — (“-” indicates that the concentration was under the detection limit (4.3 ng).) | Plasma morphine concentration (in terms of morphine hydrochloride) (240 min, Animal 1, oral): — (“-” indicates that the concentration was under the detection limit (4.3 ng).) | Plasma morphine concentration (in terms of morphine hydrochloride) (240 min, Animal 2, oral): — (“-” indicates that the concentration was under the detection limit (4.3 ng).) | Plasma morphine concentration (in terms of morphine hydrochloride) (240 min, Animal 3, oral): — (“-” indicates that the concentration was under the detection limit (4.3 ng).) | Cmax (male, plasma, po, 2 mg): 5.3 ± 5.5 ng/mL | concentration at 60 min (male, plasma, po, 2 mg, 60 min, Animal 1, oral): 5 ng/mL | concentration at 60 min (male, plasma, po, 2 mg, 60 min, Animal 3, oral): 11 ng/mL

From patent publication US20060110333A1 (priority 2002, published 2006)
